PubChem BioAssay AID1159578 – Peter MacCallum Cancer Centre, 2015
Test: 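Genome-wide hunt for genes controlling movement of lymphatic endothelial cells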 (primary screen). Cells: human lymphatic endothelial cells. Knock-down reagent: siRNA pool against human genes, 40 nM. Duration: 48 h after transfection. Detection: 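High-content imaging of dye-stained cells in a scratch assay measures filled wound area and nuclei per well; duplicate means given as ratio to mock and robust z-score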. Reading the numbers: migration robust z-score: higher = faster migration into the scratch; nuclei per well: higher = more cells in the well. Hit rule: 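Pools averaging fewer than 3300 nuclei are never called; remaining pools count as changed when migration robust z lies outside -2 to 2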. Calls: active = migration changed; inactive = no migration change, or too few cells.
This is one part, drawn at random, of about 18,000 reagents tested. Over the whole deposit, about 1,030 (5.7%) were called active. 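Inactive calls also include pools with fewer than 3300 nuclei, whose migration was not assessed.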 The raw values are shown without normalisation. The numbers tell different reagents against one gene apart. Not all columns of the deposit are shown.

| gene symbol | reagent | migration robust z-score | nuclei per well, duplicate mean | Outcome |
| --- | --- | --- | --- | --- |
| LNPEP | 1 | 0.88 | 4888 | inactive |
| SCAMP2 | 1 | 1.46 | 4396 | inactive |
| NEK10 | 1 | 0.38 | 5877 | inactive |
| NCBP3 | 1 | -0.82 | 7806 | inactive |
| PDCD5 | 1 | -0.13 | 5800 | inactive |
| OR10H1 | 1 | 0.11 | 4238 | inactive |
| BORCS7 | 1 | 0.97 | 5686 | inactive |
| QKI | 1 | -1.5 | 4852 | inactive |
| ASB16-AS1 | 1 | -0.72 | 6168 | inactive |
| TCF19 | 1 | -2.42 | 3562 | active |
| SS18 | 1 | 1.22 | 6691 | inactive |
| KLRC4 | 1 | -0.16 | 5856 | inactive |
| NOS2 | 1 | -1.35 | 5294 | inactive |
| FAM161B | 1 | -0.58 | 4561 | inactive |
| C19orf44 | 1 | 0.4 | 5886 | inactive |
| USP3 | 1 | -0.83 | 5144 | inactive |
| OR11H12 | 1 | -1.15 | 5792 | inactive |
| ACCS | 1 | -0.43 | 5620 | inactive |
| RAB5A | 1 | -0.24 | 4641 | inactive |
| FOXP1 | 1 | 0.05 | 5851 | inactive |
| PRC1 | 1 | 0.32 | 4287 | inactive |
| F9 | 1 | -0.52 | 5174 | inactive |
| CASTOR1 | 1 | -0.02 | 5752 | inactive |
| DCAF1 | 1 | -0.88 | 6163 | inactive |
| ASCL3 | 1 | 1.67 | 5108 | inactive |
| P2RY6 | 1 | 0.36 | 6666 | inactive |
| MDM2 | 1 | -0.44 | 4978 | inactive |
| KCNIP3 | 1 | -0.08 | 4638 | inactive |
| MROH5 | 1 | -1.2 | 5912 | inactive |
| EMC9 | 1 | -0.54 | 5348 | inactive |
| RASD1 | 1 | -0.42 | 5530 | inactive |
| DGAT1 | 1 | 0.86 | 5895 | inactive |
| MMP24 | 1 | 0.26 | 5256 | inactive |
| PNPLA2 | 1 | 0.36 | 5036 | inactive |
| MACROD2 | 1 | -0.21 | 7325 | inactive |
| NR6A1 | 1 | -0.88 | 3678 | inactive |
| TRIM37 | 1 | 0.49 | 5079 | inactive |
| SZT2 | 1 | 0.09 | 5542 | inactive |
| SZT2 | 2 | -1.34 | 5969 | inactive |
| TAGLN3 | 1 | 0.01 | 4344 | inactive |
| KCNJ14 | 1 | -0.24 | 6718 | inactive |
| PRTG | 1 | 0.68 | 5764 | inactive |
| TRMT1L | 1 | 1.92 | 6110 | inactive |
| SHROOM4 | 1 | 2.21 | 5366 | active |
| E2F6 | 1 | 0.7 | 6882 | inactive |
| STRA6 | 1 | 1.8 | 5764 | inactive |
| PIK3CG | 1 | 0.08 | 4702 | inactive |
| WFDC11 | 1 | 0.24 | 5024 | inactive |
| C10orf71 | 1 | 1.87 | 4938 | inactive |
| OR2G2 | 1 | -0.57 | 5556 | inactive |
| TNFRSF13C | 1 | -0.27 | 5260 | inactive |
| TRIP12 | 1 | -0.05 | 4920 | inactive |
| GTF3C3 | 1 | -0.6 | 4486 | inactive |
| ARID4A | 1 | 1.43 | 5614 | inactive |
| CDRT15 | 1 | -0.23 | 5418 | inactive |
| ERGIC3 | 1 | -2.1 | 5814 | active |
| TRIM45 | 1 | 0.32 | 5948 | inactive |
| H3C2 | 1 | -0.14 | 5090 | inactive |
| TXNDC11 | 1 | 0.08 | 5812 | inactive |
| TBL2 | 1 | -0.06 | 6952 | inactive |
| RUSC1-AS1 | 1 | -0.02 | 5576 | inactive |
| OLA1 | 1 | 0.78 | 6426 | inactive |
| NOX4 | 1 | 1.12 | 7318 | inactive |
| TRPV3 | 1 | 1.48 | 4953 | inactive |
| MDGA1 | 1 | -0.09 | 5668 | inactive |
| COX4I1 | 1 | 1.32 | 6141 | inactive |
| ACBD7 | 1 | -0.5 | 5846 | inactive |
| ILRUN | 1 | -0.94 | 3541 | inactive |
| EXOSC1 | 1 | -0.44 | 5762 | inactive |
| PGM3 | 1 | -0.31 | 6809 | inactive |
| CLEC4E | 1 | -1.52 | 6626 | inactive |
| SAMM50 | 1 | -0.2 | 4362 | inactive |
| TAAR6 | 1 | 0.44 | 4560 | inactive |

Ordered by “nuclei per well, duplicate mean” (ascending): some entries from above
| gene symbol | reagent | migration robust z-score | nuclei per well, duplicate mean | Outcome |
| --- | --- | --- | --- | --- |
| SAMM50 | 1 | -0.2 | 4362 | inactive |
| EXOSC1 | 1 | -0.44 | 5762 | inactive |
| CLEC4E | 1 | -1.52 | 6626 | inactive |
| PGM3 | 1 | -0.31 | 6809 | inactive |
